Data as given in publication PMC11806408.
Results are given in words; binding and its absence hold for the method and conditions named. Some results given as binding are weak or reduced against the parent protein; the word gives no strength. For some of these results: Tags and fused reporters may be left off the sequences shown.

The chains behind the UniProt entries cited, without tags or fusion partners. Residues count along the entry.
UniProt P37023, residues 22-118: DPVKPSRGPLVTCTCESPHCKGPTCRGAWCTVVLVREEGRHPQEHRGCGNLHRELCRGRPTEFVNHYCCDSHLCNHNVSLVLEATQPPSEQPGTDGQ

T1: BMP‐10 PD (HEK293, from the processed BMP‐10 CPLX) (human) (UniProt O95393)
T1 sequence (chain, N‐glycosylation): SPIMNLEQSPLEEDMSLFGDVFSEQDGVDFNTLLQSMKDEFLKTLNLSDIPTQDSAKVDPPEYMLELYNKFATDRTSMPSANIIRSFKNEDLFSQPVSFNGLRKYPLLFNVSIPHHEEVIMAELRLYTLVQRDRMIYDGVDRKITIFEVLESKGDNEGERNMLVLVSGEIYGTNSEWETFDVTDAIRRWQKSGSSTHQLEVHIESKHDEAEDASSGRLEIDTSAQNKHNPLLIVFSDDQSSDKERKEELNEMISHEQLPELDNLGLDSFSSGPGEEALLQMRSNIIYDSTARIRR

T2: ENG ectodomain (R&D Systems #1097‐EN‐025/CF) (human) (UniProt P17813)
T2 sequence: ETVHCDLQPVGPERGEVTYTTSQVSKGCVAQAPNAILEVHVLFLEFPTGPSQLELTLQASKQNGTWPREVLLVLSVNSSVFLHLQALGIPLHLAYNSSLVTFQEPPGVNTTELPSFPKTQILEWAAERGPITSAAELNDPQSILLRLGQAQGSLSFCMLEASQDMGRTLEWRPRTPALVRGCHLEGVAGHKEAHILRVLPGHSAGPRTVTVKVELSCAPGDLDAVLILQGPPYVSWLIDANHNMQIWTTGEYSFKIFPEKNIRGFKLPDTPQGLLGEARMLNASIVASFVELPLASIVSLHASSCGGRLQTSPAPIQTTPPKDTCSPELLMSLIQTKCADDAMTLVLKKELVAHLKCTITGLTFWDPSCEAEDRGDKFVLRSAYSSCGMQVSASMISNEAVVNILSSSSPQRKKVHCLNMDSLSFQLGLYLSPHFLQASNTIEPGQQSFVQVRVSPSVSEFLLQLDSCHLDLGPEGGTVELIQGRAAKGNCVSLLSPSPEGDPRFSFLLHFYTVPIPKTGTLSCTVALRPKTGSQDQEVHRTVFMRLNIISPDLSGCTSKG

T3: BMPRII ectodomain, human IgG1‐Fc fusion (R&D Systems #811‐BR‐100/CF) (human) (UniProt Q13873)
T3 sequence: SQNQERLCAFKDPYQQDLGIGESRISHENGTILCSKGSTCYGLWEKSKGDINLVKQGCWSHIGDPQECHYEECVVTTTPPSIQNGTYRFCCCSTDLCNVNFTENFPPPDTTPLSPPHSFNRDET


Assays:
[1] = molecular target: T1, BMP‐10 PD (HEK293, from the processed BMP‐10 CPLX) (human); assay: SEC; complex co-purified from conditioned medium of HEK293 cells expressing tag‐free full‐length BMP‐10: HiTrap Q twice, then Superose 12 in 1 M NaCl, 20 mM NaH2PO4, pH 7.4; fractions on SDS–PAGE
[2] = molecular target: ALK‐1 ectodomain, human IgG1‐Fc fusion (R&D Systems #370‐AL‐100/CF) (human) (UniProt P37023); assay: SPR; receptor ectodomains immobilised at 500 or 800 RUs on a CM5 chip by amine coupling; analytes 0 to 80 nM, 1:2 serial dilutions, 1× HBS‐EP; 1:1 model with mass transfer; apparent KD = kd/ka; three independent experiments; both purified
[3] = molecular target: T2, ENG ectodomain (R&D Systems #1097‐EN‐025/CF) (human); assay: as above
[4] = molecular target: T3, BMPRII ectodomain, human IgG1‐Fc fusion (R&D Systems #811‐BR‐100/CF) (human); assay: as above

binding [1]	Binder	binding [2]	binding [3]	binding [4]
binds	BMP‐10 GF (HEK293, from the processed BMP‐10 CPLX) (ligand, UniProt O95393 317-424) NAKGNYCKRTPLYIDFKEIGWDSWIIAPPGYEAYECRGVCNYPLAEHLTPTKHAIIQALVHLKNSQKASKACCVPTKLEPISILYLDKGVVTYKFKYEGMAVSECGCR			
	unprocessed BMP‐10 dimer (BMP‐10 I314S/R315I) (ligand, UniProt O95393 22-424) SPIMNLEQSPLEEDMSLFGDVFSEQDGVDFNTLLQSMKDEFLKTLNLSDIPTQDSAKVDPPEYMLELYNKFATDRTSMPSANIIRSFKNEDLFSQPVSFNGLRKYPLLFNVSIPHHEEVIMAELRLYTLVQRDRMIYDGVDRKITIFEVLESKGDNEGERNMLVLVSGEIYGTNSEWETFDVTDAIRRWQKSGSSTHQLEVHIESKHDEAEDASSGRLEIDTSAQNKHNPLLIVFSDDQSSDKERKEELNEMISHEQLPELDNLGLDSFSSGPGEEALLQMRSNIIYDSTARSIRNAKGNYCKRTPLYIDFKEIGWDSWIIAPPGYEAYECRGVCNYPLAEHLTPTKHAIIQALVHLKNSQKASKACCVPTKLEPISILYLDKGVVTYKFKYEGMAVSECGCR	no binding (tested: 80 nM (highest concentration injected))	no binding (tested: 80 nM (highest concentration injected))	no binding (tested: 80 nM (highest concentration injected))
